Data from the supplement of paper PMC10849652.
The list shows a part of the results.

Chains of the proteins cited; added tags and fusions are not shown. Lines headed by an entry give the natural chain unless they say otherwise; changes in a name come on top.
UniProt Q8WVI0: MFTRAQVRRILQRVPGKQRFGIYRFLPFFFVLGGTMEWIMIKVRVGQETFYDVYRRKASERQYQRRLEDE
UniProt Q07617: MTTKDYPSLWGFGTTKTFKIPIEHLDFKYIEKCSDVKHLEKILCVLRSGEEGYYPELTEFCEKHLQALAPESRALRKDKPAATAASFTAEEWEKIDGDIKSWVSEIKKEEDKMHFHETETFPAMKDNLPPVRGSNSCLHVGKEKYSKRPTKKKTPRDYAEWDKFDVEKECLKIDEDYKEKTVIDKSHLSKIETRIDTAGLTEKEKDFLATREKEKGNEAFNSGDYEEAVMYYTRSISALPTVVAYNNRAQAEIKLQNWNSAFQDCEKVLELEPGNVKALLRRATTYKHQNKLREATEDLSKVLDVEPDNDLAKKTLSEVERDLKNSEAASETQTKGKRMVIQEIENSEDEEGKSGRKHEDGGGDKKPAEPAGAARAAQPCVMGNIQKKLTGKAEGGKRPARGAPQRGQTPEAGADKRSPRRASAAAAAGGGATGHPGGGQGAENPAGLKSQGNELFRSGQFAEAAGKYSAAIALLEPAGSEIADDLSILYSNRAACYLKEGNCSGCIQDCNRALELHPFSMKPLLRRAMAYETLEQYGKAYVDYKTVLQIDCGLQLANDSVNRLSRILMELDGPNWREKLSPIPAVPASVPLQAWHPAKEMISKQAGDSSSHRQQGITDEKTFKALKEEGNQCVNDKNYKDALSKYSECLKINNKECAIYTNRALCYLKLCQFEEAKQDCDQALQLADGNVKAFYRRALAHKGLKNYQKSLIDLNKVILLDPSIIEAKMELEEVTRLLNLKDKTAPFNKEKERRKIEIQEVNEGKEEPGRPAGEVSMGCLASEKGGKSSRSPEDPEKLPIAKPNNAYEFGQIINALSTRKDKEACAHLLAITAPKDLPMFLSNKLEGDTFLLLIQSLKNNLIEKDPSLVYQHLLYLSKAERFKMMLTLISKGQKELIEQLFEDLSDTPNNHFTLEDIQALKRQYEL
UniProt Q9Y343: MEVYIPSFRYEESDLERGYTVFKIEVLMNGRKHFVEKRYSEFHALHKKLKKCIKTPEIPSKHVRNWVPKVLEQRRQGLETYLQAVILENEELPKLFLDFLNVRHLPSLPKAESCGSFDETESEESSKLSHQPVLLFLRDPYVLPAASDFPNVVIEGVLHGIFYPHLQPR
UniProt O60271: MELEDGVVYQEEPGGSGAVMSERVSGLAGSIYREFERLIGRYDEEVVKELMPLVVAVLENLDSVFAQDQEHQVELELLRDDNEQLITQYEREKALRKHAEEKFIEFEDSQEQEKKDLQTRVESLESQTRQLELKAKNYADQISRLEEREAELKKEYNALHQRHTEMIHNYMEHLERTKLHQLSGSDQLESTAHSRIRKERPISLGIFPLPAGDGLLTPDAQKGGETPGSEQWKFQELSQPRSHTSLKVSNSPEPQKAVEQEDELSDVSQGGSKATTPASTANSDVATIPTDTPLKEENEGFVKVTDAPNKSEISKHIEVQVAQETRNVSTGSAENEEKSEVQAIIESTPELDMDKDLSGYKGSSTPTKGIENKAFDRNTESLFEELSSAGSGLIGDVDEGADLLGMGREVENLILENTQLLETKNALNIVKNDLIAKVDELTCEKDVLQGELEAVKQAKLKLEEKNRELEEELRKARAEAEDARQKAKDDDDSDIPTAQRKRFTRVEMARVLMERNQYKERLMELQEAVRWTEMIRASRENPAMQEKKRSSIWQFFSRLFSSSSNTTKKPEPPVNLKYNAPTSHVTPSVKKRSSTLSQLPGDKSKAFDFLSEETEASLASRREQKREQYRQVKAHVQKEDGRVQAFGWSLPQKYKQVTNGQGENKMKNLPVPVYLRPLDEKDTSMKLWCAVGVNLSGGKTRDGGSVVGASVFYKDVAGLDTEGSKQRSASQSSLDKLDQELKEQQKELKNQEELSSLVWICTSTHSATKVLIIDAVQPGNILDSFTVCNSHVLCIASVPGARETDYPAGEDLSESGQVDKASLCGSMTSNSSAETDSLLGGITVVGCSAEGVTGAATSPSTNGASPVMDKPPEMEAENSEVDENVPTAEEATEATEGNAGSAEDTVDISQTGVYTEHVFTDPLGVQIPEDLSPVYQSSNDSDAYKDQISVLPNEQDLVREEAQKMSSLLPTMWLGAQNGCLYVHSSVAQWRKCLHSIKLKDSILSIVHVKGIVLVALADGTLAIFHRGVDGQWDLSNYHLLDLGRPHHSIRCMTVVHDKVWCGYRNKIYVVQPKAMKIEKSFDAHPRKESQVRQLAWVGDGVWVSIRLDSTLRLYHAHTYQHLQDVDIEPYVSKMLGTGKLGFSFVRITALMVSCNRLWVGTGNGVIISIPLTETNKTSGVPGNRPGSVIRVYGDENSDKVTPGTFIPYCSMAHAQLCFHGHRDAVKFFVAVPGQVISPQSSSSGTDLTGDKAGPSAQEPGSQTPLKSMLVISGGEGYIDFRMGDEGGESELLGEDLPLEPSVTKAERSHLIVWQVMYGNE
UniProt P35712: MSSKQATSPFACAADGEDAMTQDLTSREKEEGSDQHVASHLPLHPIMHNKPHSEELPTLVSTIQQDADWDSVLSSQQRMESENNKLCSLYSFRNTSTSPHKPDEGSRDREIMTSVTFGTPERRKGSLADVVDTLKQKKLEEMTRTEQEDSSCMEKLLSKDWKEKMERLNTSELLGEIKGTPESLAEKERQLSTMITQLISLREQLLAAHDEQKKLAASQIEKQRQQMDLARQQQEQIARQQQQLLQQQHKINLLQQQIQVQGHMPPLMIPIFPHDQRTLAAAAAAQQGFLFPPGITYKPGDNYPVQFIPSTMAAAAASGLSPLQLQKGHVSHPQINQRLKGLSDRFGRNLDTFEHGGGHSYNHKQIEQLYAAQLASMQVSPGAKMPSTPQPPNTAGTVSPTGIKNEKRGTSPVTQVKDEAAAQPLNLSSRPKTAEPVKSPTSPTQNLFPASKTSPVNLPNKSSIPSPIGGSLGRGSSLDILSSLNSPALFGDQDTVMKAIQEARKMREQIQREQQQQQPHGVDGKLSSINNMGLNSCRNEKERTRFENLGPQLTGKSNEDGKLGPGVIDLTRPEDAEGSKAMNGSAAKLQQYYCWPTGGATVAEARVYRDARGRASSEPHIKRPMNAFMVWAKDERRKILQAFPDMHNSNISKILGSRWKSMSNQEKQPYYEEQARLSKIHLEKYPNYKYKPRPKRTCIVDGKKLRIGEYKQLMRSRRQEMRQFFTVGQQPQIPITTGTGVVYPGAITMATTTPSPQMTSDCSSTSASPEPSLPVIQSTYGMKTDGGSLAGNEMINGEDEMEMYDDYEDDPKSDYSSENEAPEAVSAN
UniProt B2RUZ4: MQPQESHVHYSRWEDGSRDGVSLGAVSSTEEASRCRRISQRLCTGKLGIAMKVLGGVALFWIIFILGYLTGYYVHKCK
UniProt P17405: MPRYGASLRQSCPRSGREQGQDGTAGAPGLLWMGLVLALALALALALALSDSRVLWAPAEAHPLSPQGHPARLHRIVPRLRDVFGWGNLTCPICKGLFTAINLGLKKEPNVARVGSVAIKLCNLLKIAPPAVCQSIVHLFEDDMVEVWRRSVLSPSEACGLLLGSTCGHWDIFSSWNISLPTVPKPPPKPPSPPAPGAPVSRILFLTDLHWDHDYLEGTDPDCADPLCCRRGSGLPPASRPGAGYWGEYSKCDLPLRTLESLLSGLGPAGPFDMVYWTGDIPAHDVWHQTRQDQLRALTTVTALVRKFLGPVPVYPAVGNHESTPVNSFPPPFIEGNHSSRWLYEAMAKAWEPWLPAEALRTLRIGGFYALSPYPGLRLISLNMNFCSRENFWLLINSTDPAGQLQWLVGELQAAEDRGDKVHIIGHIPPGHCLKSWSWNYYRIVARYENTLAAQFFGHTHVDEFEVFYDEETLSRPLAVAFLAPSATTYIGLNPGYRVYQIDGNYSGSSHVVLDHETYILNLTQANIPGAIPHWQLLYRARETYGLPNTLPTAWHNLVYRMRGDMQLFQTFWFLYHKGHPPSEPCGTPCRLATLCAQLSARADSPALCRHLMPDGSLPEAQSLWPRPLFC
UniProt Q3SY56: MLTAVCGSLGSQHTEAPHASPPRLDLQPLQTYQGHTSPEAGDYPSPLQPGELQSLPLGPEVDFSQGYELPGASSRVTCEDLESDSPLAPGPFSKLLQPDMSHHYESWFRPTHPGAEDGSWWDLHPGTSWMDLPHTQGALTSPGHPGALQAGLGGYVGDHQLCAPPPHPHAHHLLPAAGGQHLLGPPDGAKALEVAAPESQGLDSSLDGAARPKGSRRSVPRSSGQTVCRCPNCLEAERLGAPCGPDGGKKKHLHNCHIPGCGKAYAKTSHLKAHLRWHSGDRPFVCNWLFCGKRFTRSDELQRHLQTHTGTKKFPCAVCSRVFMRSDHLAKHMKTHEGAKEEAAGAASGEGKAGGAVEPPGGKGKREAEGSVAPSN
UniProt P58511: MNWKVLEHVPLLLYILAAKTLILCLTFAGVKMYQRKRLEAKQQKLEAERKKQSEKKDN
UniProt Q16533: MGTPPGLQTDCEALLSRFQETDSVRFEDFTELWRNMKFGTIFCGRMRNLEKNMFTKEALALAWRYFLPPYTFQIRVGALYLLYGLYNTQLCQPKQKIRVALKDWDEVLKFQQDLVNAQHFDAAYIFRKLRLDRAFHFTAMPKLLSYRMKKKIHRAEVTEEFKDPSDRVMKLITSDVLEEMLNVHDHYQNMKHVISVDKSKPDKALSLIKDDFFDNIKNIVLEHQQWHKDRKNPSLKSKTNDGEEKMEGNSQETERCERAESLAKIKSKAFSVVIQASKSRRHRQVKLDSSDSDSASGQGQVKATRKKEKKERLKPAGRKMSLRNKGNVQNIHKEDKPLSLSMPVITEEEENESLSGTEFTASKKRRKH
UniProt P35716: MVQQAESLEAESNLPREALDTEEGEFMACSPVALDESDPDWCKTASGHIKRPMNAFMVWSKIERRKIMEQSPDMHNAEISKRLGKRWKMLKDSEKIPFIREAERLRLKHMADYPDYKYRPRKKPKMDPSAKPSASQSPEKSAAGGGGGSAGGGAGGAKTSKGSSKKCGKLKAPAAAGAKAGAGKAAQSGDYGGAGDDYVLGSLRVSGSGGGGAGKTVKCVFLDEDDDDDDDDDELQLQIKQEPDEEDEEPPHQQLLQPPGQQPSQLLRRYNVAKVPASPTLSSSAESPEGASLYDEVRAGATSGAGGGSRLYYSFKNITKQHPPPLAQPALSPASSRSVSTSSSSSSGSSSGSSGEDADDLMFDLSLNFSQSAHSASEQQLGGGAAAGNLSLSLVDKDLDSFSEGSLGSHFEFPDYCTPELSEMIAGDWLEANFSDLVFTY
UniProt Q9Y5X0: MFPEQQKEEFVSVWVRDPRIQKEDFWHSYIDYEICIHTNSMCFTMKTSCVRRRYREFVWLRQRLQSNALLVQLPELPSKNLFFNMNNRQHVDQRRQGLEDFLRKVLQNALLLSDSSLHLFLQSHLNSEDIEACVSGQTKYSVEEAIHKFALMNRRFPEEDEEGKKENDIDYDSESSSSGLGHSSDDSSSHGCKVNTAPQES
UniProt Q8IYR2: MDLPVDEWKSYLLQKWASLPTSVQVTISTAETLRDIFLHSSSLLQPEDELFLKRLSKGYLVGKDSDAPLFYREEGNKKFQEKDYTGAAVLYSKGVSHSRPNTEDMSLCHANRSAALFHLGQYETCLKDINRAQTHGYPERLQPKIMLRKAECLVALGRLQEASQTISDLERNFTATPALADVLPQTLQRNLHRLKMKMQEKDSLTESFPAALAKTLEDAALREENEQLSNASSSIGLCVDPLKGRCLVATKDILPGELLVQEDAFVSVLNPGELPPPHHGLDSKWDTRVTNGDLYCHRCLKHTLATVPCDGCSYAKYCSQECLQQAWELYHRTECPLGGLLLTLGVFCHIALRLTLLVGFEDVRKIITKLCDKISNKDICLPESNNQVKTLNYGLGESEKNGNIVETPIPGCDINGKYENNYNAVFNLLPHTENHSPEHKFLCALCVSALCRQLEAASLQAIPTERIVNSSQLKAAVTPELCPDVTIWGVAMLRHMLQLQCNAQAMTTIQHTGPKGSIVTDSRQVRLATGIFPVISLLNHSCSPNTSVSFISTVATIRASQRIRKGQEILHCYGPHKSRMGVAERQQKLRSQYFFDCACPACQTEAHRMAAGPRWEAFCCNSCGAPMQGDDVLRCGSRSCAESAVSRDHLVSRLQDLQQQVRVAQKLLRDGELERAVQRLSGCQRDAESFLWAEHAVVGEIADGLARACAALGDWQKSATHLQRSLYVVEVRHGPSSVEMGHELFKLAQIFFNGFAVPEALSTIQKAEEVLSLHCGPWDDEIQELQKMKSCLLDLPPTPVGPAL

Legend:
Assay in all cases: log2 fold change, soluble protein after heating vs DMSO (PISA); higher = thermal stabilisation; K562 lysate, 10 uM; active = over 0.2 and 3.5 SD of the protein, either way, in both replicates (recomputed)
[1] = compound: C=CC(=O)N1CCC[C@@H](n2nc(-c3ccc(Oc4ccccc4)cc3)c3c(N)ncnc32)C1 [ibrutinib]
Summary of the method: (§1)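 Pellets of K562 cells were dounce-homogenised in PBS pH 7.4 with 1 mM MgCl2, and the crude extract was held at 1 mg/mL protein for a 30 min treatment with 10 μM compound. Aliquots were heated for 3 min over 48°C-58°C and pooled before NP-40 was added to 0.5% at 4°C. The supernatant from 21,000xg for 90 min was quantified by TMTpro 16plex LC-MS/MS with channel sums equalised. Values are reported from duplicates as log-two fold change in thermal stability relative to solvent controls.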

[2] = compound: CC(=O)c1cnc2ccc(-c3cc(Cl)c(O)c(Cl)c3)nc2c1N[C@H]1CC[C@H](CN(C)C)CC1
Summary of the method: as §1

[3] = compound: CC(C)(C)Cn1c(N)nc2ccc(-c3[nH]c(C(C)(C)C)nc3-c3ccc(F)cc3)nc21 [ralimetinib]
Summary of the method: as §1

[4] = compound: CC(C)(O)CC(=O)NCCn1ccc2ncnc(Nc3ccc(Oc4cccc(C(F)(F)F)c4)c(Cl)c3)c21
Summary of the method: as §1

[5] = compound: CC1=C(C(CC(=O)N1)C2=CC=C(C=C2)C(F)(F)F)C(=O)NC3=C(C=C4C(=C3)C=NN4)F
Summary of the method: as §1

[6] = compound: CC1=C(C=C(C=C1)NC(=O)C2=CC(=CC=C2)C(C)(C)C#N)NC3=CC4=C(C=C3)N=CN(C4=O)C
Summary of the method: as §1

[7] = compound: CC1=C(C=C(C=C1)NC(=O)C2=CC(=CC=C2)N(C)C)NC(=O)C3=CC=C(C=C3)O
Summary of the method: as §1

[8] = compound: CC1=CC=C(C=C1)SC2=C3C=C(SC3=CN=C2)C(=O)N
Summary of the method: as §1

[9] = compound: CCCS(=O)(=O)Nc1ccc(F)c(C(=O)c2c[nH]c3ncc(Cl)cc23)c1F
Summary of the method: as §1

[10] = compound: CCN(CCCOc1ccc2c(Nc3cc(CC(=O)Nc4cccc(F)c4)[nH]n3)ncnc2c1)CCOP(=O)(O)O [barasertib]
Summary of the method: as §1

[11] = compound: CC[C@@H]1C(=O)N(C)c2cnc(Nc3ccc(C(=O)N[C@H]4CC[C@H](N5CCN(CC6CC6)CC5)CC4)cc3OC)nc2N1C(C)C [volasertib]
Summary of the method: as §1

[12] = compound: CCn1c(C(=O)N(C2CC2)C2CC2)cc2c3c(ncn3C)c(Nc3cc(C)n(C)n3)nc21
Summary of the method: as §1

[13] = compound: CCn1cc(-c2ccnc3[nH]c(-c4cccc(CN(C)C)c4)cc23)c(-c2ccc(NC(=O)N(C)C)cc2)n1
Summary of the method: as §1

[14] = compound: CN1CCC(CNc2ccc3ncc(-c4cccc(OC(F)(F)F)c4)n3n2)CC1
Summary of the method: as §1

[15] = compound: CN1CCN(c2nc(C3=C(c4c[nH]c5ccccc45)C(=O)NC3=O)c3ccccc3n2)CC1 [sotrastaurin]
Summary of the method: as §1

[16] = compound: CCCS(=O)(=O)Nc1ccc(F)c(C(=O)c2c[nH]c3ncc(-c4ccc(Cl)cc4)cc23)c1F [vemurafenib]
Summary of the method: as §1

[17] = compound: CC(C)C1=C2N=C(C=C(N2N=C1)NCC3=CC=CC=C3)NCCCCCCN
Summary of the method: as §1

[18] = compound: CC1=C(C2=C(C=C1)C(=O)C3=CC=CC=C3N2CCCN)C
Summary of the method: as §1

[19] = compound: CC[C@@H]1C(=O)N(C)c2cnc(Nc3ccc(C(=O)NC4CCN(C)CC4)cc3OC)nc2N1C1CCCC1
Summary of the method: as §1

[20] = compound: CN1CCN(CCOc2cc(OC3CCOCC3)c3c(Nc4c(Cl)ccc5c4OCO5)ncnc3c2)CC1 [saracatinib]
Summary of the method: as §1

Measured: log2 fold change

SMIM4 (UniProt Q8WVI0)
inactive: [1] 0.06 | [2] -0.29 | [3] 0.084 | [4] 0.032 | [5] -0.044 | [6] 0.023 | [7] 0.004 | [8] -0.024 | [9] -0.147 | [10] -0.041 | [11] -0.057 | [12] -0.041 | [13] -0.231 | [14] -0.059 | [15] 0.021

SPAG1 (UniProt Q07617)
inactive: [1] 0.034 | [2] 0.282 | [3] -0.017 | [4] -0.17 | [6] 0.15 | [7] 0.079 | [8] -0.198 | [16] 0.041 | [9] 0.028 | [10] 0.018 | [11] -0.137 | [12] 0.083 | [15] -0.02

SNX24 (UniProt Q9Y343)
inactive: [1] -0.008 | [3] 0.048 | [4] 0.054 | [17] -0.185 | [5] -0.037 | [18] 0.008 | [6] -0.035 | [7] 0.008 | [10] 0.215 | [19] -0.093 | [12] 0.138 | [13] -0.017 | [14] -0.084 | [20] 0.018 | [15] -0.028

SPAG9 isoform 4 (UniProt O60271)
inactive: [1] -0.003 | [3] 0.03 | [4] -0.048 | [6] 0.046 | [7] 0.009 | [16] 0.114 | [10] 0.011 | [19] -0.026 | [12] 0.018 | [13] -0.123 | [14] -0.016 | [15] 0.133

SNX33 (UniProt Q8WV41)
inactive: [1] 0.101 | [3] -0.005 | [4] -0.168 | [5] -0.026 | [18] 0.006 | [6] 0.022 | [7] 0.135 | [10] -0.177 | [12] 0.185 | [20] -0.029 | [15] 0.016

SOX6 (UniProt P35712)
inactive: [1] 0.042 | [3] 0.002 | [4] -0.002 | [17] 0.338 | [5] 0.171 | [18] 0.035 | [6] 0.147 | [7] 0.01 | [16] -0.058 | [10] 0.145 | [19] 0.06 | [12] 0.053 | [13] -0.042 | [14] 0.075 | [20] -0.085 | [15] 0.033

SMC4 (UniProt C9JJ64)
inactive: [1] -0.146 | [10] 0.152

SMIM1 (UniProt B2RUZ4)
inactive: [1] 0.018 | [2] 0.005 | [3] 0.054 | [4] 0.036 | [17] 0.081 | [5] -0.132 | [6] -0.042 | [7] -0.021 | [8] 0.058 | [9] 0.013 | [10] 0.002 | [19] -0.108 | [11] 0.026 | [12] -0.096 | [13] -0.036 | [14] -0.222 | [15] 0.088

SMPD1 (UniProt P17405)
inactive: [1] 0.002 | [3] -0.038 | [4] -0.065 | [17] -0.032 | [5] 0.004 | [18] -0.109 | [6] -0.096 | [7] -0.035 | [10] -0.112 | [12] 0.023 | [20] 0.042 | [15] 0.028

2 neighbouring entries already listed, for reference:
SPAG9 isoform 4 (UniProt O60271)
inactive: [1] -0.003 | [3] 0.03 | [4] -0.048 | [6] 0.046 | [7] 0.009 | [16] 0.114 | [10] 0.011 | [19] -0.026 | [12] 0.018 | [13] -0.123 | [14] -0.016 | [15] 0.133

SNX33 (UniProt Q8WV41)
inactive: [1] 0.101 | [3] -0.005 | [4] -0.168 | [5] -0.026 | [18] 0.006 | [6] 0.022 | [7] 0.135 | [10] -0.177 | [12] 0.185 | [20] -0.029 | [15] 0.016

(cont.)

SNX13 (UniProt Q9Y5W8)
inactive: [1] -0.056 | [3] 0.053 | [4] -0.047 | [17] -0.04 | [18] -0.021 | [6] -0.012 | [7] -0.006 | [10] 0.102 | [12] -0.006 | [20] -0.03 | [15] 0.019

SP6 (UniProt Q3SY56)
inactive: [2] 0.007 | [3] -0.03 | [4] -0.034 | [17] -0.037 | [5] -0.131 | [18] -0.147 | [6] 0.067 | [7] -0.05 | [8] -0.023 | [16] 0.075 | [9] 0.051 | [19] 0.031 | [11] 0.023 | [12] 0.015 | [13] 0.284 | [14] -0.001 | [20] 0.106 | [15] 0.016

SMIM11A (UniProt P58511)
inactive: [2] -0.05 | [6] -0.275 | [8] 0.063 | [16] 0.035 | [9] -0.288 | [19] -0.302 | [11] -0.016 | [15] 0.046

SNRPN isoform 2 (UniProt P63162)
inactive: [2] -0.057 | [17] -0.259 | [6] -0.098 | [8] -0.023 | [16] 0.046 | [9] 0.161 | [19] 0.191 | [11] -0.162 | [13] 0.118 | [14] -0.067 | [15] 0.059

SNAPC1 (UniProt Q16533)
inactive: [5] -0.058 | [6] 0.016 | [15] 0.137

SOX11 (UniProt P35716)
inactive: [2] 0.081 | [6] 0.011 | [8] -0.145 | [16] -0.101 | [9] -0.05 | [11] 0.145 | [15] 0.095

SNX10 (UniProt Q9Y5X0)
inactive: [3] -0.055 | [4] 0.081 | [17] 0.002 | [18] -0.076 | [6] -0.017 | [7] 0.068 | [12] -0.06 | [20] -0.008 | [15] 0.063

SMYD4 (UniProt Q8IYR2)
inactive: [3] 0 | [4] 0.021 | [17] 0.092 | [18] 0.171 | [6] -0.215 | [7] 0.006 | [12] -0.15 | [13] -0.18 | [14] 0.043 | [20] 0.366 | [15] 0.316

SNX19 (UniProt Q92543)
inactive: [3] -0.045 | [4] -0.08 | [17] -0.005 | [5] 0.029 | [18] -0.234 | [6] -0.076 | [7] 0.096 | [19] 0.058 | [12] -0.044 | [13] 0.092 | [14] -0.291 | [20] -0.159 | [15] -0.007
